Laboratory results: patent US20210032190A1, “CYCLOPROPYL ETHYLENE COMPOUND AND ARTHROPOD PEST CONTROL COMPOSITION CONTAINING SAME” (SUMITOMO CHEMICAL COMPANY, LIMITED, priority 2018, published 2021)
Some of these results come from one statement about several compounds together. At least one compound was matched to its structure with a doubt left.

How the values were obtained:
[1] = test system: common red spider mite (Tetranychus urticae); experiment: Test method 7: spray on kidney bean seedling infested with common red spider mite; format: in vivo; conditions: 500 ppm, sprayed 10 mL/seedling on kidney bean, adult females, after 7 days, 25° C.
[2] = test system: cotton aphids (Aphis gossypii); experiment: Test method 1: spray on cucumber seedling infested with cotton aphids; format: in vivo; conditions: 500 ppm, sprayed 10 mL/seedling on cucumber, after 5 days, 25° C.

| Compound | controlling value [1] | controlling value [2] |
| --- | --- | --- |
| COC=C(C(=O)OC)c1ccccc1C=CC1(C)CC1 [compound 13] | ≥ 90% | ≥ 90% |
| COC=C(C(=O)OC)c1ccc(C(F)(F)F)cc1C=CC1CC1 [compound 9] | ≥ 90% | ≥ 90% |
| COC=C(C(=O)OC)c1cc(C)ccc1C=CC1CC1 [compound 11] | ≥ 90% | ≥ 90% |
| COC=C(C(=O)OC)c1ccccc1C=CC1CC1C (stereo not shown) [compound 14] | ≥ 90% | ≥ 90% |
| CCc1ccc(C(=COC)C(=O)OC)c(C=CC2CC2)c1 [compound 8] | ≥ 90% | ≥ 90% |
| CO/C=C(/C(=O)OC)c1ccccc1/C=C/C1CC1 [compound 1] | ≥ 90% | ≥ 90% |
| COC=C(C(=O)OC)c1ccc(C)cc1C=CC1CC1C (stereo not shown) [compound 17] | ≥ 90% | ≥ 90% |
| COC=C(C(=O)OC)c1ccccc1C=CC1C(C)(C)C1(C)C [compound 16] | ≥ 90% | ≥ 90% |
| COC=C(C(=O)OC)c1ccc(C)cc1C=CC1CC1 [compound 7] | ≥ 90% | – |
| COC=C(C(=O)OC)c1ccc(Cl)cc1C=CC1CC1(C)C (stereo not shown) [compound 19] | ≥ 90% | ≥ 90% |
| COC=C(C(=O)OC)c1cccnc1C=CC1CC1 [compound 22] | – | ≥ 90% |
| COC=C(C(=O)OC)c1ccccc1C=CC1CC1(C)C (stereo not shown) [compound 15] | ≥ 90% | ≥ 90% |
| COC=C(C(=O)OC)c1cccc(Cl)c1C=CC1CC1 [compound 5] | – | ≥ 90% |
| COC=C(C(=O)OC)c1ccc(Cl)cc1C=CC1CC1 [compound 6] | ≥ 90% | ≥ 90% |
| COC=C(C(=O)OC)c1c(C)cccc1C=CC1CC1 [compound 12] | ≥ 90% | ≥ 90% |
| COC=C(C(=O)OC)c1ccc(C)cc1C=CC1CC1(C)C (stereo not shown) [compound 20] | ≥ 90% | ≥ 90% |
| COC=C(C(=O)OC)c1ccc(OC)cc1C=CC1CC1 [compound 10] | ≥ 90% | ≥ 90% |
